The source of these data is the supplement of paper PMC10338343.

The subject of assay [1] is MILI (PIWIL2) piRISC loaded with L1MC piRNA (26 nt). Put plainly: pre-steady-state target cleavage rate (min^-1); higher = faster piRNA-guided slicing of the target. The note with it: guide: L1MC piRNA 5'p-UAACUAAAUACUAUGCAAGCUGUAGG; auxiliary factor: none (no GTSF1). In outline: (§1)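 In HEPES–potassium acetate buffer at 33 °C, […] transcribed, DNA-blocked target RNA library was mixed with 1 nM active affinity-purified piRISC carrying one synthetic guide, with or without 500 nM GTSF1 partner protein, for 0–8 or 0–960 min. Uncleaved targets were sequenced and normalised to depth and to weakly complementary targets; three trials were pooled and k3 was capped at 0.0001 min^-1. The pre-steady-state cleavage rate followed from a burst-and-steady-state fit.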

In assay [2] the test system is EfPiwi piRISC loaded with L1MC piRNA (26 nt). Put plainly: pre-steady-state target cleavage rate (min^-1); guide: L1MC piRNA 5'p-UAACUAAAUACUAUGCAAGCUGUAGG; MIWI and MILI are mouse PIWI proteins and EfPiwi is from a freshwater sponge; tags in brackets are library labels; higher = faster piRNA-guided slicing of the target. In outline: as §1
The mark [3] stands for this setting: auxiliary factor: 500 nM Ephydatia muelleri Gtsf1.
[4] abbreviates: auxiliary factor: none (no Gtsf1).

± gives the standard deviation. Only a part is listed here, and it is no random draw. The uncertainty is large for many entries. The list shows a part of the results.

With UCCUGGAUGAGCUUGCAUAGCAUUUAGUUA, the “pre-steady-state target cleavage rate” value in assay [1] is 0.00238 ± 0.0031; in assay [2] (setting [3]), 0.0029 ± 0.0019; in assay [2] (setting [4]), 0.00185 ± 0.0058.

For the sequence UCCUGGAACAGCUUGCGAUAGUAUUUAGUUA, the “pre-steady-state target cleavage rate” value in assay [1] is 0.000566 ± 0.01; in assay [2] (setting [3]), 0.00523 ± 0.0018; in assay [2] (setting [4]), 0.000477 ± 0.021.

With UCCUGGUACAGCUUGCUUAGUAUUUAGAAA, the “pre-steady-state target cleavage rate” value in assay [1] stood at 0.00175 ± 0.0041; in assay [2] (setting [3]), 0.00224 ± 0.002; in assay [2] (setting [4]), 0.000678 ± 0.0081.

As for UCCUGGAUGUGCUUGCAUAGUUUUUUGUUA, the “pre-steady-state target cleavage rate” value in assay [1] came out at 0.00118 ± 0.0082; in assay [2] (setting [3]) it was 0.000902 ± 0.0061; in assay [2] (setting [4]) it was 0.000246 ± 0.043.

In the case of UCCUGCUACAGCUUGCAUAGUAUUUAGAAA, the results for the “pre-steady-state target cleavage rate” value in assay [1], in assay [2] (setting [3]) and in assay [2] (setting [4]) were 0.00178 ± 0.0037, 0.00439 ± 0.0012 and 0.000508 ± 0.012, respectively.

For UCCUGGAUCAGCUUGCAUAGUAUAAUGUUA, the figures for the “pre-steady-state target cleavage rate” value in assay [1], in assay [2] (setting [3]) and in assay [2] (setting [4]) were 0.00279 ± 0.0033, 0.0022 ± 0.0027 and 0.000729 ± 0.012, respectively.

Turning to UCCUGGAACAGCUAUGCAUAGUAUUUAGUUA, the figures for the “pre-steady-state target cleavage rate” value in assay [1], in assay [2] (setting [3]) and in assay [2] (setting [4]) were 0.0036 ± 0.0037, 0.0102 ± 0.0029 and 0.00046 ± 0.018, respectively.

Regarding UCCUGGAACAGCUUGCAUACUAAUUAGUUA, the figures for the “pre-steady-state target cleavage rate” value in assay [1], in assay [2] (setting [3]) and in assay [2] (setting [4]) were 0.00267 ± 0.003, 0.00305 ± 0.0029 and 0.000434 ± 0.018, respectively.

Turning to UCCUGGAUGAGCUUGCAUACUAAUUAGUUA, the “pre-steady-state target cleavage rate” value in assay [1] worked out at 0.00154 ± 0.0043; in assay [2] (setting [3]), 0.00252 ± 0.0026; in assay [2] (setting [4]) it was 0.000309 ± 0.022.

UCCUGGAUGAGCUUGCAUAGUAUUAUCAAA: the “pre-steady-state target cleavage rate” value in assay [1] is 0.000511 ± 0.012; in assay [2] (setting [3]), 0.000944 ± 0.005; in assay [2] (setting [4]), 0.000771 ± 0.0088.

UCCUGGAUGAGCUUGGCAUAGUAUUUAGUUA: the “pre-steady-state target cleavage rate” value came out at 0.00219 ± 0.0032 in assay [1], 0.0123 ± 0.0039 in assay [2] (setting [3]) and 0.000243 ± 0.039 in assay [2] (setting [4]).

Turning to UCCUCCAACAGCUUCCAUAGUAUUUAGUUA, the “pre-steady-state target cleavage rate” value is 0.0016 ± 0.004 in assay [1], 0.00439 ± 0.0021 in assay [2] (setting [3]) and 0.000528 ± 0.01 in assay [2] (setting [4]).

In the case of UCCUGGUACAGCUUGCAUAGUAUUUAGGUA, the “pre-steady-state target cleavage rate” value in assay [1] was determined as 0.00224 ± 0.004; in assay [2] (setting [3]) it was 0.00463 ± 0.0022; in assay [2] (setting [4]), 0.000457 ± 0.026.

As to UCCUGGAACAGCUUGGAUACUAUUUAGUUA, the “pre-steady-state target cleavage rate” value in assay [1] stood at 0.00232 ± 0.0025; in assay [2] (setting [3]) it was 0.00145 ± 0.0043; in assay [2] (setting [4]), 0.000228 ± 0.04.

UCCUGGAUCAGCUUGCAUAGUAUAAUCAAA: the figures for the “pre-steady-state target cleavage rate” value in assay [1], in assay [2] (setting [3]) and in assay [2] (setting [4]) were 0.000833 ± 0.0063, 0.00378 ± 0.0043 and 0.000466 ± 0.015, respectively.

Consider UCCUCCAACAGCUUGCAUAGUAUUUUGUUA, for which the entries for the “pre-steady-state target cleavage rate” value in assay [1], in assay [2] (setting [3]) and in assay [2] (setting [4]) were 0.00221 ± 0.003, 0.00594 ± 0.0025 and 0.000855 ± 0.0073, respectively.

On to UCCUGGAACAGCUUGCAUAGUAAUUACUUA, for which the “pre-steady-state target cleavage rate” value in assay [1] turned out to be 0.000935 ± 0.0076; in assay [2] (setting [3]), 0.000707 ± 0.0089; in assay [2] (setting [4]) it was 0.00059 ± 0.013.

With UCCUGGAACAGCUUGCAUAGUUAAUAGUAA, the results for the “pre-steady-state target cleavage rate” value in assay [1], in assay [2] (setting [3]) and in assay [2] (setting [4]) were 0.00127 ± 0.0047, 0.000547 ± 0.0088 and 0.000622 ± 0.012, respectively.
